{"source": "patent US11219602B2", "about": "“Method for making a micronized dry powder formulation of glycopyrrolate and magnesium stearate” (VECTURA LIMITED, priority 2017, dated 2022)", "assay": "Dynamic Vapour Sorption (amorphous content)", "type": "physicochemical", "details": "t=0, immediately after micronisation, 25° C., 0-90% RH", "protocol": "The amorphous content for micronized glycopyrrolate was assessed by DVS using an SMS DVS Advantage instrument which was set to a temperature of 25° C. The humidity was increased from 0-90% RH then returned to 0% RH in steps of 10% RH, changes between steps which were triggered by a mass change of 0.0001 (% dm/dt).", "data": [{"smiles": "C[N+]1(C)CCC(OC(=O)C(O)(c2ccccc2)C2CCCC2)C1", "note": "(stereo not shown) [jet milled glycopyrrolate, glycopyrrolate]", "values": [{"measurement": "Amorphous material by Dynamic Vapour Sorption", "value": "substantial amounts of amorphous material"}]}]}
